Data on 40 sequences can be found in publication PMC7862700.

This is a selection; strong and weak results do not stand in their true shares. At the low end of the ranking the order means little.

The target of the test is T1, ELF5 (UniProt Q9UKW6-2).
T1 sequence: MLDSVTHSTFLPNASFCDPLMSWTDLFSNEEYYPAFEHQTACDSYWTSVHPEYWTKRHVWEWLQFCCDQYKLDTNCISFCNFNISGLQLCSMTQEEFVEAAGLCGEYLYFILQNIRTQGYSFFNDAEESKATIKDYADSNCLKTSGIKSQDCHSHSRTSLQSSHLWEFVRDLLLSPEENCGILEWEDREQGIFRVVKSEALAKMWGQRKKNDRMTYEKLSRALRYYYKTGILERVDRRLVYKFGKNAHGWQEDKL
The experiment in a line: DAPPL (digital affinity profiling via proximity ligation, sequencing). The note with it: 10 mM Tris-HCl pH 7.5, 50 mM NaCl, 1 mM DTT, 4% glycerol, room temperature, 30 min; GST-TFs on glutathione beads, 16-mer random dsDNA library, 0.1% …; high values mean tight binding; double strand, one strand shown; scale: fold enrichment (6-mer frequency, TF over GST control).
Regarding ATTAAA, the binding signal was 1.12. With TTACGC, the binding signal worked out at 0.96. Consider AATAGG, for which the binding signal was 1.19.

As to CCTAAC, the binding signal was 1.39. TCTGGA yielded a binding signal of 0.994. Sequence TAATAT yielded a binding signal of 1.22. As for TGACTA, the figure is 0.991; as for CCCTGA, 1.06; as for TCACCC, 1.07.

For the sequence AATCCA, the binding signal amounted to 1.05. GGTAAT: the binding signal was 1.16.

ATAATC gave a binding signal of 1.13. TGCTTA displayed a binding signal of 1.03. As for TCAAGT, the binding signal came to 0.968. The figure for TTGTTT is 1.37; for CAATTT it is 1.29; for ATCACA it is 0.995.

Turning to TCAACG, the binding signal came to 0.994.

GATTAA yielded a binding signal of 0.99. The sequence GTTCGA yielded a binding signal of 0.966. In turn, CCGCTT gave a binding signal of 2.05. For the sequence TCTCCA, the binding signal was found to be 1.37. In turn, TATATC had a binding signal of 1.66. The figure for TGATTC is 1.03. Turning to TTCACG, the binding signal came out at 1.38. Sequence CCTCAA had a binding signal of 1.52.

The sequence AGATAA yielded a binding signal of 0.997. The sequence TTCGAC had a binding signal of 1.36. The figure for CCTCCG is 1.35; for CTAACA it is 1.15. TTTCAA had a binding signal of 1.26.

GTTATT gave a binding signal of 1.21. The figure for CTATCG is 0.974. The figure for GGGTTT is 1.1.

For the sequence GTCTCC, the binding signal amounted to 1.4. As for TTTCAT, the figure is 1.23; as for GCTGCT, 1.23. As for TAGCAG, the figure is 1.05; as for TTTCTA, 1.31; as for TATAAA, 1.24.
